Laboratory results taken from PubChem BioAssay AID720504 (National Center for Advancing Translational Sciences (NCATS), 2013).
The whole screen tested about 360,000 compounds, of which about 10,000 (2.8%) were called active. Inconclusive results, whose numbers are uncertain, are shown with a selection of clear calls. Calls come from the whole dose curve; as a rule, active = well fitted inhibition curve with a large enough effect; inconclusive = small, poorly fitted or top-dose-only effect; inactive = flat fitted curve, though single readings scatter. Potencies beside an inconclusive call are fits to weak or partial responses and may not hold up.

Sequences of proteins named here, by UniProt entry; tags and fusion partners are left off.
UniProt P53350, whole entry, looked up: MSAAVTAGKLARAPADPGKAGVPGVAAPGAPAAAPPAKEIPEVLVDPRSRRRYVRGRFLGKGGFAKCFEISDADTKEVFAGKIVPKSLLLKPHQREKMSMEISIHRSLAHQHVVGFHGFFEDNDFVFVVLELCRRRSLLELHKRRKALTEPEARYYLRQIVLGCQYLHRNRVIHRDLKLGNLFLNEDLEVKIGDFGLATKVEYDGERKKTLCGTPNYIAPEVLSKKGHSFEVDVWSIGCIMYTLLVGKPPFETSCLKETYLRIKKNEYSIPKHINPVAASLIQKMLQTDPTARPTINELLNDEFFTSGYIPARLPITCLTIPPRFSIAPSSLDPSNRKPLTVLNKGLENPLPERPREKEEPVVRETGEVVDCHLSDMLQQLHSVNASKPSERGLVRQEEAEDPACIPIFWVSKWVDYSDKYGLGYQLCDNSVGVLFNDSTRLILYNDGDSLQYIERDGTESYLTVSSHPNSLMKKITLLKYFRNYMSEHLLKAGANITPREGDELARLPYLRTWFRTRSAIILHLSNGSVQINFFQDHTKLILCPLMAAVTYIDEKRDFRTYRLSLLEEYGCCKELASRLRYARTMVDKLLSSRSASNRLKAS

Molecular target: Serine/threonine-protein kinase PLK1 (Homo sapiens) (UniProt P53350)
Experiment: qHTS for Inhibitors of PLK1-PDB (polo-like kinase 1 - polo-box domain): Primary Screen; note: nearly all actives have a fitted effect of over 65% in size; for max response, negative = inhibition: series mostly up to about 57 µM
Conditions: Plk1 PBD binding of FITC phosphopeptide, fluorescence polarization
% is set by controls: 0 for no effect and ±100 for the full control effect; potency is the fitted concentration of half-maximal effect.

SMILES | Potency | max response, negative = inhibition
CNC(=S)Nc1ccc(C)c(NC(=S)NC)c1 | inconclusive: 29.9 µM [inhibitor, partial curve] | 
Cc1ccc(NC(=O)CN2C(=O)S/C(=C\c3cccn3-c3cccc(C(=O)O)c3)C2=O)cc1C | inconclusive: 37.7 µM [inhibitor, single point] | 
O=C1OCc2cccc([N+](=O)[O-])c21 |  | inactive: -11.1%
CCC(CC)c1nnc(NC(=O)c2cc([N+](=O)[O-])ccc2N2CCOCC2)s1 | inconclusive: 37.7 µM [inhibitor, single point] | 
Cc1n[nH]c(=O)n1-c1ccc(C(C)(C)C)cc1 | inconclusive: 26.7 µM [inhibitor, single point] | 
CC(C)C(=O)N1CCN(c2ccccc2NC(=S)NC(=O)c2ccco2)CC1 | inconclusive: 23.8 µM [inhibitor, partial curve] | 
Cn1ccnc1Sc1ccc(C=O)cc1[N+](=O)[O-] | inconclusive: 26.7 µM [inhibitor, partial curve] | 
CCOC(=O)CSC1=NC(=O)CS1 | inconclusive: 26.7 µM [inhibitor, partial curve] | 
O=C(Nc1ccccc1)c1ccc(COc2ccccc2)cc1 | active: 29.9 µM | 
O=C(C1=C[C@H](c2csc3ccccc23)C[C@H](OCCCCO)O1)N1CCN(Cc2ccc3c(c2)OCO3)CC1 |  | inactive: 5.62%
Cc1c(NS(=O)(=O)c2cccc(C(=O)NCc3ccc(Cl)cc3)c2)c(=O)n(-c2ccccc2)n1C | inconclusive: 26.7 µM [inhibitor, partial curve] | 
CCc1c(C)sc(NC(=O)c2ccco2)c1C#N | inconclusive: 26.7 µM [inhibitor, partial curve] | 
O=[N+]([O-])c1ccc(OCC(O)CN(C2CCCCC2)C2CCCCC2)cc1 (stereo unspecified) | inconclusive: 16.8 µM [inhibitor, partial curve] | 
CN(CCc1ccccc1)c1ccc([N+](=O)[O-])cn1 |  | inactive: -3.04%
COc1cccc(/C=C/C(=O)N2CCN(S(=O)(=O)c3ccccc3)CC2)c1 |  | inactive: -13.6%
C(=N\N(c1ccccc1)c1ccccc1)/c1ccc(N2CCOCC2)s1 |  | inactive: -4.54%
Cc1sc2nc(CN3CCCC3)nc(Cl)c2c1C | inconclusive: 42.3 µM [inhibitor, partial curve] | 
Cc1ccc([C@@H]2CC=C(C(=O)O)[C@H](c3ccc(Br)cc3)N2S(=O)(=O)c2ccc(C)cc2)cc1 | inconclusive: 26.7 µM [inhibitor, single point] | 
CC1CCCC(NC(=O)CCS(=O)(=O)c2ccc3c(c2)NC(=O)CS3)C1C (stereo unspecified) | active: 29.9 µM | 
CCCCNC(=O)CCC(=O)Nc1ccc2nc(N3CCCCC3)cc(C)c2c1 | inconclusive: 8.44 µM [inhibitor, partial curve] | 
Cc1ccc(C2C3CSCC=C3C(C#N)=C(N)C2(C#N)C#N)cc1 (stereo unspecified) |  | inconclusive: -35% [inhibitor]
Cc1ccc(-c2nn(-c3ccccc3)cc2C(=O)NC2CCC(O)CC2)cc1 (stereo unspecified) |  | inactive: 6.03%
COc1ccc(S(=O)(=O)Nc2cccnc2)cc1 |  | inconclusive: -20.3% [inhibitor]
COc1cc(C2C(C#N)=C(N)Oc3c2ccc2ccccc32)ccc1OCC(=O)Nc1cccc(C)c1 (stereo unspecified) |  | inactive: 4.94%

Structures above that contain an aryl methoxy group, in the order listed:
SMILES | Potency | max response, negative = inhibition
COc1cccc(/C=C/C(=O)N2CCN(S(=O)(=O)c3ccccc3)CC2)c1 |  | inactive: -13.6%
COc1ccc(S(=O)(=O)Nc2cccnc2)cc1 |  | inconclusive: -20.3% [inhibitor]
COc1cc(C2C(C#N)=C(N)Oc3c2ccc2ccccc32)ccc1OCC(=O)Nc1cccc(C)c1 (stereo unspecified) |  | inactive: 4.94%

Next structures

SMILES | Potency | max response, negative = inhibition
CCSc1nc2ccc(N3C(=O)C4C5C=CC(C5)C4C3=O)cc2s1 (stereo unspecified) | inconclusive: 29.9 µM [inhibitor, single point] | 
CCC(=O)c1ccc(OCC(=O)Nc2nc(-c3cccnc3)cs2)cc1 | inconclusive: 29.9 µM [inhibitor, single point] | 
CCN(CC)S(=O)(=O)c1ccc2c(c1)[nH]c(=S)n2CC | inconclusive: 18.9 µM [inhibitor, partial curve] | 
O=C(c1ccc2c(=O)n3c(nc2c1)CCCCC3)N1CCN(c2ccc([N+](=O)[O-])cc2)CC1 |  | inactive: -12.3%
CCn1c(C)nc2cc(S(=O)(=O)N3CCCCC3)ccc21 |  | inactive: -7.96%
COc1ccc(-c2noc3c2-c2nc(-c4ccccc4F)sc2CC3)cc1 |  | inactive: -28.7%
CC1CCCCN1C(=O)C1CCCCN1S(=O)(=O)c1cccc([N+](=O)[O-])c1 (stereo unspecified) | inconclusive: 21.2 µM [inhibitor, partial curve] | 
O=C1COc2ccc(C(=O)CSc3nnc(Cc4cccs4)n3-c3ccccc3)cc2N1 | inconclusive: 21.2 µM [inhibitor, partial curve] | 
Cc1ccc2c(c1)c1nc3ccccc3nc1n2C | inconclusive: 33.6 µM [inhibitor, partial curve] | 
COc1ccc(N=C(C)C2=C(O)CSC2=O)cc1 |  | inactive: -14.8%
COc1cc(/C=C/C(=O)OCC(=O)NCc2ccco2)ccc1OC(F)F |  | inactive: -4.63%
Cc1ccnc(NC(=O)c2cc3cc(F)ccc3s2)c1 | inconclusive: 13.4 µM [inhibitor, partial curve] | 
COc1ccccc1S(=O)(=O)N(C)C[C@@H]1OCc2cnnn2CCCC(=O)N([C@@H](C)CO)C[C@H]1C |  | inactive: 1.79%
CN(C)C(=O)CSc1nnc(-c2cccnc2)n1-c1ccccc1 |  | inactive: -10.7%
COc1cccc(Oc2cc(NN3CCCCC3)c([N+](=O)[O-])cc2[N+](=O)[O-])c1OC |  | inactive: -8.17%
NC(=O)c1cc([N+](=O)[O-])ccc1NCCc1ccccc1 |  | inactive: -4.48%
Cc1ccc(CN2C(=O)CCC2C(=O)NCCc2ccccc2)cc1 (stereo unspecified) |  | inactive: 7.56%
CCOc1cc(C2NN=C(c3ccccc3)S2)ccc1OCc1ccccc1Cl (stereo unspecified) | inconclusive: 26.7 µM [inhibitor, partial curve] | 
Cc1oc(/N=C/c2ccc(O)cc2O)c(C#N)c1C | inconclusive: 23.8 µM [inhibitor, partial curve] | 
O=C(CSc1nccn1-c1ncc(C(F)(F)F)cc1Cl)c1ccc(Cl)cc1 | inconclusive: 2.67 µM [inhibitor, partial curve] | 
COC(=O)Nc1ccc(SCC(=O)c2ccc(Cl)cc2)cc1 | inconclusive: 23.8 µM [inhibitor, partial curve] | 
C=C(C)C(=O)Nc1cccc(C2=NOC3(C2)C[C@@H](C(N)=O)N(C(=O)/C=C/C=C/C)C3)c1 (stereo partly specified) | inconclusive: 16.8 µM [inhibitor, partial curve] | 
CC(=NNS(=O)(=O)c1ccc(C)cc1)c1ccccc1 |  | inactive: 5.13%
COc1ccc(NC(=S)N(Cc2ccc(C(=O)O)cc2)Cc2ccc(OC)c(OC)c2)cc1 | inconclusive: 26.7 µM [inhibitor, single point] | 

Taken from above.
Value of CNC(=S)Nc1ccc(C)c(NC(=S)NC)c1 under Potency: inconclusive: 29.9 µM [inhibitor, partial curve]
Value of O=C(c1ccc2c(=O)n3c(nc2c1)CCCCC3)N1CCN(c2ccc([N+](=O)[O-])cc2)CC1 under max response, negative = inhibition: inactive: -12.3%

(listing goes on)

SMILES | Potency | max response, negative = inhibition
Cc1[nH]n(C(N)=S)c(=O)c1N=Nc1cccc(Cl)c1 | inconclusive: 18.9 µM [inhibitor, partial curve] | 
CC(C)N1C(=O)S/C(=C/c2ccccc2OCc2ccc(C(=O)O)cc2)C1=O | inconclusive: 33.6 µM [inhibitor, single point] | 
O=C(NC(=S)N1CCCc2ccccc21)c1ccc([N+](=O)[O-])cc1 |  | inconclusive: -32% [inhibitor]
NC(=O)c1sc2nccc(Nc3ccccc3)c2c1N | inconclusive: 23.8 µM [inhibitor, single point] | 
CCn1nc(NC(=O)c2ccccn2)c2cc3cc(C)ccc3nc21 | active: 23.8 µM | 
Cc1cc(C)c(NC(=O)CN(C)C(=O)c2ccc(OCc3ccccc3)cc2)c(C)c1 |  | inactive: -6.91%
Cc1ccc(NC(=O)CN(C)C(=O)Cn2ncc(Cl)c(Cl)c2=O)cc1 |  | inconclusive: -33.6% [inhibitor]
O=C(O)COc1ccccc1/C=C1\SC(=Nc2ccc(F)cc2)N(c2ccc(F)cc2)C1=O | inconclusive: 23.8 µM [inhibitor, single point] | 
CC[C@H](CO)Oc1cc(NCc2ccc(Cl)c(Cl)c2)c2ncn(C(C)C)c2c1 |  | inactive: 1.59%
CC1(CC(=O)N/N=C/c2cc3c(cc2Br)OCO3)OCCO1 | inconclusive: 37.7 µM [inhibitor, single point] | 
Cc1ccc(NC(=O)Nc2c(C)n(C)n(-c3ccccc3)c2=O)cc1C | active: 21.2 µM | 
CCOc1ccc(C(C(=O)NCC2CCCO2)N(C(=O)c2snc(C(N)=O)c2N)c2ccccc2F)cc1 (stereo unspecified) |  | inactive: -1.25%
Cc1ccc(NC(=O)c2sc3nc(N4CCOCC4)c4c(c3c2N)CCCC4)cc1 | inconclusive: 23.8 µM [inhibitor, single point] | 
S=c1[nH]nc(Cc2ccc(Cl)cc2)o1 | active: 33.6 µM | 
COc1ccc(C(=O)C2CCCN(C(=O)c3ccc4nccnc4c3)C2)c(C)c1 (stereo unspecified) |  | inactive: 0.0099%
O=C(CSC(=S)N1CCCC1)NCCc1ccccc1 | inconclusive: 23.8 µM [inhibitor, partial curve] | 
Cc1ccc(-c2csc(NC(=S)NC(=O)/C=C/c3ccco3)n2)cc1 |  | inactive: -7.85%
CCCC(C)c1nnc(NC(=O)c2cc(C(=O)OC)cc([N+](=O)[O-])c2)s1 (stereo unspecified) | active: 5.97 µM | 
O=C(c1ccc(Cl)c(Cl)c1)N1CCC(=O)N(C(COCc2ccc(Cl)cc2)Cc2ccccc2)CC1 (stereo unspecified) |  | inactive: -6.43%
O=C(O)c1ccc(Cl)cc1Nc1nc2cc(Cl)ccc2o1 | active: 18.9 µM | 
Cc1ccc(S(=O)(=O)N2[C@@H](c3ccc(Cl)cc3)C(C(=O)O)=CC[C@H]2c2ccc(Cl)cc2)cc1 | inconclusive: 29.9 µM [inhibitor, single point] | 
CC(=O)Nc1ccccc1N(CC(O)Cn1c2ccccc2c2ccccc21)S(=O)(=O)c1ccc(C)cc1 (stereo unspecified) |  | inactive: -1.76%
CC(Sc1ncccn1)C(=O)NC1CCCC1 (stereo unspecified) |  | inconclusive: -31% [inhibitor]
